# Source: PubChem BioAssay AID2685 (National Center for Advancing Translational Sciences (NCATS), 2010)
# The other results are listed elsewhere or left out. Further columns of the screen follow, without active or inactive calls. Compounds called inactive in the main read-out are mostly missing here. Potencies come from curve fits of mixed quality, noted in brackets.
# Assay: qHTS Assay for Lipid Storage Modulators in Drosophila S3 Cells;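 on cell number change: cells counted by Cell Tracker Red CMTPX staining in the red channel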
# Conditions: BODIPY lipid droplet fluorescence, 18-24 h; for cell number change: measured here: cell count max response, cells fed with added oleic acid
# Method in brief: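 Drosophila S3 cells got compounds at several concentrations plus oleic acid (400 uM solution). Laser-scanning cytometry with 488 nm excitation read lipid droplets at 500-530 nm and cells at 575-640 nm. Percent activity was relative to 20 uM Triacsin C.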
# [1] = measured here: cell number channel AC50, cells fed with added oleic acid
# [2] = measured here: lipid fluorescence (Fed channel) AC50, cells fed with added oleic acid
Compound,cell number change [%],AC50 [1],AC50 [2]
Cc1ccc(S(=O)(=O)NCCN=C(CN2CCCC2)NS(=O)(=O)c2ccc(C)cc2)cc1,-2.36,"4.11 µM [falling, single point]",–
O=CC1=C(N2CCOCC2)/C(=C/c2ccc(Cl)cc2)CC1,–,"6.51 µM [falling, single point]","4.61 µM [falling, single point]"
COc1cc(CNn2cnnc2)ccc1OCC(=O)NC(C)(C)C,-4.65,–,"6.51 µM [falling, single point]"
Nc1cccc(-n2nncc2-c2ccc(Cl)cc2)c1,-25.4,–,"0.82 µM [rising, full curve]"
COc1ccc(CCNC(=O)c2cccc(S(=O)(=O)N3CCCCCC3)c2)cc1,-19.3,–,"3.66 µM [falling, full curve, poor fit]"
COC(=O)c1ccc(NC(=O)Nc2ccc3c(c2)OCO3)cc1,-1.81,–,"31.6 µM [rising, single point]"
COc1ccc(-n2nnnc2S(=O)(=O)CC(=O)N2CCCCC2)cc1,-64.3,"23.1 µM [falling, single point]","1.84 µM [falling, partial curve]"
CC(=O)N1CCCc2cc(S(=O)(=O)CCC(=O)N3CCN(c4ccccc4)CC3)ccc21,7.64,–,"2.91 µM [rising, single point]"
O=C(Nc1nc2cc3c(cc2s1)OCCO3)c1ccco1,-20.8,–,–
COc1ccc(OC)c2[nH]c(=O)c(CCNC(=O)C(C)C)cc12,60.2,"7.31 µM [rising, partial curve]","7.31 µM [rising, partial curve]"
CC(C)OC(=O)CSc1ncnc2c1cnn2-c1ccccc1,120,"14.6 µM [rising, partial curve, poor fit]","0.651 µM [rising, partial curve, poor fit]"
Cc1ccc(C(=O)NCC(=O)OCc2cccc(Br)c2)cc1,78.3,"29.1 µM [rising, single point]","6.51 µM [falling, partial curve, poor fit]"
Cc1ccc(C(=O)CC2(O)C(=O)Nc3ccccc32)s1 (stereo not given),-151,"20.6 µM [falling, partial curve]","23.1 µM [falling, partial curve]"
S=C(c1ccc(-c2ccc(Cl)cc2)o1)N1CCCCC1,-58.6,"5.8 µM [falling, partial curve]","6.51 µM [falling, full curve]"
NC(=O)c1ccsc1NC(=O)c1ccc2c(c1)CCCC2,–,–,"0.58 µM [rising, full curve]"
CN(Cc1ccccc1)S(=O)(=O)c1ccc(NC(=O)C2CCCO2)cc1 (stereo not given),1.46,–,–
CCC(Sc1nc2sc(C(=O)OC)c(C)c2c(=O)n1N)C(=O)NCC1CCCO1 (stereo not given),–,"6.51 µM [rising, single point]","4.61 µM [rising, partial curve]"
COc1ccc(C)cc1S(=O)(=O)N1CCCC(C(=O)NCc2ccccn2)C1 (stereo not given),6.74,–,"5.17 µM [rising, single point]"

# Some of the entries so far, with tabs:
Compound	cell number change [%]	AC50 [1]	AC50 [2]
S=C(c1ccc(-c2ccc(Cl)cc2)o1)N1CCCCC1	-58.6	5.8 µM [falling, partial curve]	6.51 µM [falling, full curve]
NC(=O)c1ccsc1NC(=O)c1ccc2c(c1)CCCC2	–	–	0.58 µM [rising, full curve]
CN(Cc1ccccc1)S(=O)(=O)c1ccc(NC(=O)C2CCCO2)cc1 (stereo not given)	1.46	–	–

# (further entries)

Compound,cell number change [%],AC50 [1],AC50 [2]
CCCn1c(N)c(C(=O)CN(C)CC(=O)Nc2cccc(F)c2)c(=O)[nH]c1=O,2.61,–,"0.164 µM [falling, single point]"
COc1ccc(C2(c3ccc(OC)cc3)NC(=O)N(CC(=O)NCC(C)c3ccccc3)C2=O)cc1 (stereo not given),-16.7,–,–
Cn1c(=O)cc(OCC(=O)N2CCN(c3cccc(C(F)(F)F)c3)CC2)c2ccccc21,6.71,–,–
CC(C)c1nnc(SCc2ccc(CSc3nnc(C(C)C)n3N)cc2)n1N,-35.5,"14.6 µM [falling, partial curve, poor fit]","0.0058 µM [falling, full curve, poor fit]"
CN(C)[C@@H]1C(=O)C(C(N)=O)=C(O)[C@@]2(O)C(=O)C3=C(O)c4c(O)ccc(Cl)c4[C@@H](O)[C@H]3C[C@@H]12,12,"6.51 µM [rising, single point]",–
COc1ccc(CC(=O)N2CCN=C2SC)cc1,11.7,–,"0.146 µM [falling, full curve, poor fit]"
CC(C)(C)c1nc[nH]c(=O)c1Br,137,"29.1 µM [rising, partial curve, poor fit]","0.00461 µM [falling, full curve, poor fit]"
CCC(C)[C@H](NC(=O)C1CC(=O)N(c2ccc(OC)cc2)C1)C(=O)NC1CCCC1 (stereo not given in full),-11.8,–,"0.651 µM [rising, partial curve, poor fit]"
COc1ccc(CCNC(=O)c2ccc(OC)c(OC)c2)cc1OC,–,–,"29.1 µM [rising, single point]"
Nc1nc(CSCc2ccccc2)nc(N2CCOCC2)n1,1.15,–,"29.1 µM [rising, single point]"
O=C(COC(=O)C1CCC1)Nc1ccccc1Sc1ccccc1,6.96,–,"14.6 µM [rising, partial curve, poor fit]"
COc1ccc(Nc2nc3c(C)cccn3c(=O)c2C=O)cc1,-6.94,–,–
CCOc1ccccc1N1CCN(Cc2ccc(OC)c(OC)c2OC)CC1,-21.6,–,"6.51 µM [falling, partial curve]"
CCC(C)N(C(=O)CSc1ncnc2sccc12)C1CCS(=O)(=O)C1 (stereo not given),4.14,"0.58 µM [falling, full curve]","0.92 µM [falling, full curve]"
Cc1ccc(C)c(Nc2ncccc2C(=O)NCc2cccs2)c1,34.1,"29.1 µM [rising, single point]","0.58 µM [falling, partial curve]"
NC(=O)N(N)c1nc(N2CCCC2)nc(N2CCCC2)n1,-12.5,–,"18.4 µM [rising, single point]"
CCOCCCN(C(=O)c1snc(C(N)=O)c1N)C(C(=O)NC1CCCC1)c1ccc(O)cc1 (stereo not given),8.26,–,"14.6 µM [falling, partial curve]"
COc1ccc(C(=O)N2CCN(C(=O)C3COc4ccccc4O3)CC2)cc1OC (stereo not given),12.5,–,"13 µM [rising, partial curve]"
